These are yes or no findings as the source states them, for the method shown. In cells and extracts the contact can be indirect. These calls come from enrichment with a bait or labelling near it, and not all partners need be listed. Sequences can lack the tags named with a protein.
target: T1, Myc9-TEV2-His6-Smy2 (S. cerevisiae) (UniProt P32909); assay: affinity purification with mass spectrometry; two-step purification of Myc9-TEV2-His6-Smy2 from yeast extract: anti-Myc 9E10 protein G beads, washes with 500 mM potassium acetate, TEV release, nickel beads; eluate to LC/MS/MS; beads alone / untagged control
T1 sequence: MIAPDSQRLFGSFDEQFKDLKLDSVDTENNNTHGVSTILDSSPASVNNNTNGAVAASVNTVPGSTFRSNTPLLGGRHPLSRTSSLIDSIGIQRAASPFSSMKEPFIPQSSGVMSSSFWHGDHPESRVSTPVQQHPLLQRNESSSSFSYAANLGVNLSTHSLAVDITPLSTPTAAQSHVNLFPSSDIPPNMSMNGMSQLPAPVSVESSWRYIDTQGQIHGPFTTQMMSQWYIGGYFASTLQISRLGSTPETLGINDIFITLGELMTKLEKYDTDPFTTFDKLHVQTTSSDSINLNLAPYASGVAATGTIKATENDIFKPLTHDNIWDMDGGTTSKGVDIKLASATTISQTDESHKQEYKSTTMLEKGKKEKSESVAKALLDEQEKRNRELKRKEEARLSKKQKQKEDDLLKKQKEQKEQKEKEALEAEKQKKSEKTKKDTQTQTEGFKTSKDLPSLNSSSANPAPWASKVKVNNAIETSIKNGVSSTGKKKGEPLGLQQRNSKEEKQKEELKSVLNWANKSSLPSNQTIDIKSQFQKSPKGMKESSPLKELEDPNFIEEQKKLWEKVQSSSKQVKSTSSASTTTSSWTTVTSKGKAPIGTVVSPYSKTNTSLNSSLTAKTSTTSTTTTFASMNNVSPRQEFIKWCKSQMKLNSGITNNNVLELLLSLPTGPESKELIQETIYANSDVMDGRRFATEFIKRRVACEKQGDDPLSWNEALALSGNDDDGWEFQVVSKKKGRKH

By UniProt entry, the sequences of proteins in these tests, tags left out.
UniProt P25694: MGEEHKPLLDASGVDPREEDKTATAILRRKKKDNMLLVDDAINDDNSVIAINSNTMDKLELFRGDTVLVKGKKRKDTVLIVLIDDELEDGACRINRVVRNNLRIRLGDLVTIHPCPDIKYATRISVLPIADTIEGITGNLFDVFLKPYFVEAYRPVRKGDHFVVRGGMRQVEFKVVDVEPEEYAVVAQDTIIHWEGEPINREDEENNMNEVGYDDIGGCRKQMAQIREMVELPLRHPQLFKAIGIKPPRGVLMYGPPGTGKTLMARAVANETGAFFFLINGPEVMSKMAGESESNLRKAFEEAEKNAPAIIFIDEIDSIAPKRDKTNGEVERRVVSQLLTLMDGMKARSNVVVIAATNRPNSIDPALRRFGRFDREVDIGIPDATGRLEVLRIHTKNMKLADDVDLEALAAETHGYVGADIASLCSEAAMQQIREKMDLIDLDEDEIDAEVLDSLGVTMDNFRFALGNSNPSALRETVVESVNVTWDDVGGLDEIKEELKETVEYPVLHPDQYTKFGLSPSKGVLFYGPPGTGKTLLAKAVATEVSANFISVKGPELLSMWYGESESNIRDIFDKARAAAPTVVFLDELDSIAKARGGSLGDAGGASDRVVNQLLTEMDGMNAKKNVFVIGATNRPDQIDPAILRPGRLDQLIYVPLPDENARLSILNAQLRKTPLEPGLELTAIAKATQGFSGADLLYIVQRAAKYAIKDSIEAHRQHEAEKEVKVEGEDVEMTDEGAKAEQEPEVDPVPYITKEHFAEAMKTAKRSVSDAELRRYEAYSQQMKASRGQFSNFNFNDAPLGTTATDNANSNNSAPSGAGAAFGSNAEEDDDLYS
UniProt P19524: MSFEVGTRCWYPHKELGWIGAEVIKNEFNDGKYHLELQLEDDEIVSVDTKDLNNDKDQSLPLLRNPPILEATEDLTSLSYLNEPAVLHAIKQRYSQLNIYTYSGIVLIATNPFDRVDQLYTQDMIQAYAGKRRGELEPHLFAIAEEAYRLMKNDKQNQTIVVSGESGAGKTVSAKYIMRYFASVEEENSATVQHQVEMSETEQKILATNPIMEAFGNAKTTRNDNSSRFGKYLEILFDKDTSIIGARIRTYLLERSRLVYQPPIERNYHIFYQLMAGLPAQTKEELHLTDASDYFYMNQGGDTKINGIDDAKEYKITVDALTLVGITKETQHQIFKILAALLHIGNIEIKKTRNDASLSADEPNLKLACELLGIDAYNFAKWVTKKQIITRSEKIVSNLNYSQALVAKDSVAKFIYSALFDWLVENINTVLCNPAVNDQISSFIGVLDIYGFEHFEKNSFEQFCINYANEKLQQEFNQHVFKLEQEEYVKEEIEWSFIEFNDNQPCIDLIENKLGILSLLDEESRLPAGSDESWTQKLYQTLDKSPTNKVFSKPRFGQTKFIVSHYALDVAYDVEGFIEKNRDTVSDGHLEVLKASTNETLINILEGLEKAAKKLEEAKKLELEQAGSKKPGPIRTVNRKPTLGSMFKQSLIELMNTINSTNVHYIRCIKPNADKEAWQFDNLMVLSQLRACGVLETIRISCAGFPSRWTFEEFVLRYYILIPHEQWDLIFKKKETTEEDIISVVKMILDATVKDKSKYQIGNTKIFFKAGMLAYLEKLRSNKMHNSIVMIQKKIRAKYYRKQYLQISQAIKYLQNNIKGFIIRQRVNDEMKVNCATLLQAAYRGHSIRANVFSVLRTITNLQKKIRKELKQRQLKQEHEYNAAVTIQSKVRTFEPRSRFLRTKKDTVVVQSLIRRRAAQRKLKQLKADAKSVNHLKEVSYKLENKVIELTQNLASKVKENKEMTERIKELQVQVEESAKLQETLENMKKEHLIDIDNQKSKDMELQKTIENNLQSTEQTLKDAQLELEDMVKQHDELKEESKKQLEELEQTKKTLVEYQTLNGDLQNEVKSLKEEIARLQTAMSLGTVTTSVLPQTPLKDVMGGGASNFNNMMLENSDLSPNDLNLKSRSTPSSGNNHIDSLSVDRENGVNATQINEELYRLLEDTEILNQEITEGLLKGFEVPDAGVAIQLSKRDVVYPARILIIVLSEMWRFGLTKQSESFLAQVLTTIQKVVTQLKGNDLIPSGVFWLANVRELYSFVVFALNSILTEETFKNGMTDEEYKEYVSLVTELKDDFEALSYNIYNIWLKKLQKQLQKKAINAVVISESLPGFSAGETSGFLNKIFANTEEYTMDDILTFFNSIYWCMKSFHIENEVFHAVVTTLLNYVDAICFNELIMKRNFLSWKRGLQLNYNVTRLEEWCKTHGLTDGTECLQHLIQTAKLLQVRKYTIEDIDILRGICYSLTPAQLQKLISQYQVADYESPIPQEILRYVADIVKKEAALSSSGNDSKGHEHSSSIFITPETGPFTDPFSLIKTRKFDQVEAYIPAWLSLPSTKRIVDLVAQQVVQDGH
UniProt P48415: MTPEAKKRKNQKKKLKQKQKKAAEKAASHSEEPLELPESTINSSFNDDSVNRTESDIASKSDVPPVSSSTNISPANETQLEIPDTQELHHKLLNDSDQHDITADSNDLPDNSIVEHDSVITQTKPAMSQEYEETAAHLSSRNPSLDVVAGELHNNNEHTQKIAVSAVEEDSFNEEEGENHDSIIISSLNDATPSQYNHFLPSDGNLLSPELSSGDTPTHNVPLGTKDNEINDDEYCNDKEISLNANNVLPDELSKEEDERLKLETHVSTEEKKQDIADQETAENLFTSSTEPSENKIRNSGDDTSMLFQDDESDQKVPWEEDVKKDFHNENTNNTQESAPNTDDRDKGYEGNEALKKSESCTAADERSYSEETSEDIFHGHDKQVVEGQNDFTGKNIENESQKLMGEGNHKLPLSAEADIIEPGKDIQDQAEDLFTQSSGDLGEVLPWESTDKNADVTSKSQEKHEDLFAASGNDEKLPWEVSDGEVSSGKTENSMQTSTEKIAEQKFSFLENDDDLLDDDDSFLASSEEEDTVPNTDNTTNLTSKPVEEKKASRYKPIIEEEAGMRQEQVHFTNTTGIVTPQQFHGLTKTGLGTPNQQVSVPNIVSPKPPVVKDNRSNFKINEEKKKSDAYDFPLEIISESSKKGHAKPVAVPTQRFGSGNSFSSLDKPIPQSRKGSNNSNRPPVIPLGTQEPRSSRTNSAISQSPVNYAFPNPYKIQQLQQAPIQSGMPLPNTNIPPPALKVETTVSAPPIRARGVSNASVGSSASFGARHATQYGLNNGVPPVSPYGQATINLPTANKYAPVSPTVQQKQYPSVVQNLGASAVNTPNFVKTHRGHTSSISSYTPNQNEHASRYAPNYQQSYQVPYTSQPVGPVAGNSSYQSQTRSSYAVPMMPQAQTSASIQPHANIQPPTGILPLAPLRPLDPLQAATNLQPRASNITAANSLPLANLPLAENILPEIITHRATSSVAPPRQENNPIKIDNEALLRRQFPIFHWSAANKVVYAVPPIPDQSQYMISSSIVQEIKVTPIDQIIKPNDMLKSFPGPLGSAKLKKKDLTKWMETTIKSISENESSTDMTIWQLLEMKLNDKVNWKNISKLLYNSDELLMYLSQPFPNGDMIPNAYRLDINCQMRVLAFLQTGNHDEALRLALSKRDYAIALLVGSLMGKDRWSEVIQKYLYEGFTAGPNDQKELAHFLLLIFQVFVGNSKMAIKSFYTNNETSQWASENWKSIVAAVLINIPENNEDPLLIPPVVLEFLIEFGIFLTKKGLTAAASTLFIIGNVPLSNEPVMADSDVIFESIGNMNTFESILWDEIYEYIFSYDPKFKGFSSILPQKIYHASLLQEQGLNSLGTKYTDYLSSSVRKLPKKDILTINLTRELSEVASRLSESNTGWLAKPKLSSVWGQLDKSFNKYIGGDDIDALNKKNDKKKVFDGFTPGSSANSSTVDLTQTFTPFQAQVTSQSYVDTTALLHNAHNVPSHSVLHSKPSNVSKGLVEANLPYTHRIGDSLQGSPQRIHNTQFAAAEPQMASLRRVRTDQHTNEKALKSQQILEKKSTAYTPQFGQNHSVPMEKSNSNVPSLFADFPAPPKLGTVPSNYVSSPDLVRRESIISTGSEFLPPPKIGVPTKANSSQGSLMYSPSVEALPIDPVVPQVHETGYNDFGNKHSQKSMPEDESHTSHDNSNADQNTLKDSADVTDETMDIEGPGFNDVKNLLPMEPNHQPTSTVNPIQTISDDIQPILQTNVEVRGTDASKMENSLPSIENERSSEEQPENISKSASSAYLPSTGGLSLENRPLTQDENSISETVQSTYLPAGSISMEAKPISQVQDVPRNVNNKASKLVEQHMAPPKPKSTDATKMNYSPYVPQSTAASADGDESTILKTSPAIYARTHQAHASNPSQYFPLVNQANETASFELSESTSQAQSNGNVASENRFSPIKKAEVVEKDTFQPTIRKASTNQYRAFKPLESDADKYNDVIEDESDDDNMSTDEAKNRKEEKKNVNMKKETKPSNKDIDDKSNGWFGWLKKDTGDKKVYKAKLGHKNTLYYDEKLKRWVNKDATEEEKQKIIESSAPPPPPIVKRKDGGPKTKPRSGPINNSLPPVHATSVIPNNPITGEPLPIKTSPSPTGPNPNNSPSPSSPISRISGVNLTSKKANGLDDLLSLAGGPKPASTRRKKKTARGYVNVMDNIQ

binding | Substance
binds | Cdc48 (from UniProt P25694 1-835)
binds | Myo2 (from UniProt P19524 1-1574)
binds | Sec16 (from UniProt P48415 1-2195)
